Results deposited as PubChem BioAssay AID686943 (Drosophila RNAi Screening Center, 2013).

Test: 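Knockdowns that increase or decrease active ERK after insulin receptor stimulation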 (primary screen)
System: Drosophila S2R+ haemocyte-like cells expressing YFP-tagged ERK (Rolled)
Reagent: long dsRNA against Drosophila genes
Treatment: insulin stimulation versus unstimulated cells; dose and duration not given
Detection: 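Antibody staining for doubly phosphorylated ERK divided by ERK-YFP signal, as plate z-scores, in insulin-treated and untreated cells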
Reading the numbers: replicate 1, z-score of dpERK with insulin and replicate 2, z-score of dpERK with insulin: higher = more active ERK per ERK-YFP after insulin
In all, the deposit lists about 23,000 reagents; this is an unselected part of those that have a named target and a result. 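Extra replicates exist only for a retested subset of genes; insulin dose and duration not given; both raised and lowered dpERK matter.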 A plus sign joins genes that one reagent is predicted to hit. Not all columns of the deposit are shown. Not given: the amount of reagent, the time to read-out.

Silencing of CG13114 [DRSC02212] resulted in: replicate 1, z-score of dpERK with insulin 0.09; replicate 2, z-score of dpERK with insulin 0.3.
CG9550 [DRSC03262] showed replicate 1, z-score of dpERK with insulin -0.22; replicate 2, z-score of dpERK with insulin 0.55.
Depletion of CG9588 [DRSC16504] came out at: replicate 1, z-score of dpERK with insulin -0.1; replicate 2, z-score of dpERK with insulin 0.53.
After knock-down of Spn28Db [DRSC22033] the results were replicate 1, z-score of dpERK with insulin -0.02; replicate 2, z-score of dpERK with insulin -0.15.
MED15 [DRSC00267] scored replicate 1, z-score of dpERK with insulin 1.8; replicate 2, z-score of dpERK with insulin 1.88.
Silencing of Or46a + asRNA:CR43467 [DRSC07489] gave: replicate 1, z-score of dpERK with insulin 0.1; replicate 2, z-score of dpERK with insulin -0.22.
With knock-down of Or46a + asRNA:CR43467 [DRSC07490] the results were replicate 1, z-score of dpERK with insulin 0.13; replicate 2, z-score of dpERK with insulin 0.16.
With knock-down of Or46a + asRNA:CR43467 [DRSC21590] the results were replicate 1, z-score of dpERK with insulin -0.04; replicate 2, z-score of dpERK with insulin -0.19.
For Ate1 [DRSC05925] the deposit lists replicate 1, z-score of dpERK with insulin 1.42; replicate 2, z-score of dpERK with insulin -0.68.
Knock-down of Arts + Apl [DRSC10349] resulted in: replicate 1, z-score of dpERK with insulin 0.19; replicate 2, z-score of dpERK with insulin 0.19.
Depletion of CG5758 [DRSC02889] resulted in: replicate 1, z-score of dpERK with insulin -1.78; replicate 2, z-score of dpERK with insulin -2.25.
Against CG5758 [DRSC02890], the values are replicate 1, z-score of dpERK with insulin -0.3; replicate 2, z-score of dpERK with insulin -0.16.
After knock-down of robl [DRSC07674] the results were replicate 1, z-score of dpERK with insulin -0.67; replicate 2, z-score of dpERK with insulin 0.21.
CR14117 [DRSC10121] showed replicate 1, z-score of dpERK with insulin 0.4; replicate 2, z-score of dpERK with insulin 0.58.
Silencing of CG4949 [DRSC19926] came out at: replicate 1, z-score of dpERK with insulin 0.49; replicate 2, z-score of dpERK with insulin -1.44.
CG31337 [DRSC12981] gave replicate 1, z-score of dpERK with insulin -0.17; replicate 2, z-score of dpERK with insulin -0.34.
Silencing of Nrg [DRSC17573] resulted in: replicate 1, z-score of dpERK with insulin 0.7; replicate 2, z-score of dpERK with insulin -0.26.
Depletion of Nrg [DRSC18688] gave: replicate 1, z-score of dpERK with insulin -0.18; replicate 2, z-score of dpERK with insulin 0.07.

Part of the list above, showing only “replicate 1, z-score of dpERK with insulin”.
CG31337 [DRSC12981]	-0.17
Nrg [DRSC17573]	0.7

Further records follow.
Against CG13991 [DRSC02323], the values are replicate 1, z-score of dpERK with insulin 0.15; replicate 2, z-score of dpERK with insulin -0.47.
Silencing of CG34039 [DRSC09318] resulted in: replicate 1, z-score of dpERK with insulin 0.2; replicate 2, z-score of dpERK with insulin 0.71.
With knock-down of scny [DRSC10509], the screen gave replicate 1, z-score of dpERK with insulin 6.04; replicate 2, z-score of dpERK with insulin 2.4.
After knock-down of scny [DRSC10510] the results were replicate 1, z-score of dpERK with insulin 0; replicate 2, z-score of dpERK with insulin 1.17.
crb [DRSC16927] gave replicate 1, z-score of dpERK with insulin -0.23; replicate 2, z-score of dpERK with insulin 0.73.
For CG3546 [DRSC18308], the values are replicate 1, z-score of dpERK with insulin -0.22; replicate 2, z-score of dpERK with insulin -0.09.
CG7149 [DRSC03016] showed replicate 1, z-score of dpERK with insulin 0.17; replicate 2, z-score of dpERK with insulin 0.27.
CG30046 [DRSC06691] showed replicate 1, z-score of dpERK with insulin 0.53; replicate 2, z-score of dpERK with insulin 0.22.
Silencing of CR31054 [DRSC22134] resulted in: replicate 1, z-score of dpERK with insulin 1.98; replicate 2, z-score of dpERK with insulin -0.23.
With knock-down of Pgk [DRSC00769], the screen gave replicate 1, z-score of dpERK with insulin 0.79; replicate 2, z-score of dpERK with insulin 0.96.
Knock-down of CG15322 [DRSC20680] resulted in: replicate 1, z-score of dpERK with insulin -0.33; replicate 2, z-score of dpERK with insulin -3.72.
Silencing of IFT57 [DRSC00720] gave: replicate 1, z-score of dpERK with insulin -0.1; replicate 2, z-score of dpERK with insulin 0.32.
Knock-down of CG5535 [DRSC10514] gave: replicate 1, z-score of dpERK with insulin 0.83; replicate 2, z-score of dpERK with insulin -0.14.
